The supplement of paper PMC10849652
The list shows a part of the results.

By UniProt entry, the sequences of proteins in these tests, tags left out. Where a name states a change or a piece, a line headed by the entry shows the natural chain unless it says otherwise.
UniProt Q6NUQ4: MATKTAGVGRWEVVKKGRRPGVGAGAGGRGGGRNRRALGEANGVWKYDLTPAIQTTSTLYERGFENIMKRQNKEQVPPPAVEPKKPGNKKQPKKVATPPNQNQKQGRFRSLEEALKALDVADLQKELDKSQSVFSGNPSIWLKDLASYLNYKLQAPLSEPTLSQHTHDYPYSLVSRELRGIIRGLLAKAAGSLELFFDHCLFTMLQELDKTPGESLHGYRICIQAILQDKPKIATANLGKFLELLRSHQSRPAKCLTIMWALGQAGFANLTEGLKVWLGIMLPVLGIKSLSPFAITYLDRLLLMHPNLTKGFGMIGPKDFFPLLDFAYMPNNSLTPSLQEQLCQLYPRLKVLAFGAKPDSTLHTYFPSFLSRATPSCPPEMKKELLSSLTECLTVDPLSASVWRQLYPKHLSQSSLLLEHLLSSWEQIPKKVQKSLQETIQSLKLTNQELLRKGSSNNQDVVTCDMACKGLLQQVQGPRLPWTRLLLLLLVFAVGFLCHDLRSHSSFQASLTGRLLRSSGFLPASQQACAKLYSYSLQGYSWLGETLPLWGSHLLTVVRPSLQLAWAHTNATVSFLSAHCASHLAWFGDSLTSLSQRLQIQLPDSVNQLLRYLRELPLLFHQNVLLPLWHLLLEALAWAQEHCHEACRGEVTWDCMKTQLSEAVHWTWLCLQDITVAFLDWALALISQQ
UniProt Q9UKI8: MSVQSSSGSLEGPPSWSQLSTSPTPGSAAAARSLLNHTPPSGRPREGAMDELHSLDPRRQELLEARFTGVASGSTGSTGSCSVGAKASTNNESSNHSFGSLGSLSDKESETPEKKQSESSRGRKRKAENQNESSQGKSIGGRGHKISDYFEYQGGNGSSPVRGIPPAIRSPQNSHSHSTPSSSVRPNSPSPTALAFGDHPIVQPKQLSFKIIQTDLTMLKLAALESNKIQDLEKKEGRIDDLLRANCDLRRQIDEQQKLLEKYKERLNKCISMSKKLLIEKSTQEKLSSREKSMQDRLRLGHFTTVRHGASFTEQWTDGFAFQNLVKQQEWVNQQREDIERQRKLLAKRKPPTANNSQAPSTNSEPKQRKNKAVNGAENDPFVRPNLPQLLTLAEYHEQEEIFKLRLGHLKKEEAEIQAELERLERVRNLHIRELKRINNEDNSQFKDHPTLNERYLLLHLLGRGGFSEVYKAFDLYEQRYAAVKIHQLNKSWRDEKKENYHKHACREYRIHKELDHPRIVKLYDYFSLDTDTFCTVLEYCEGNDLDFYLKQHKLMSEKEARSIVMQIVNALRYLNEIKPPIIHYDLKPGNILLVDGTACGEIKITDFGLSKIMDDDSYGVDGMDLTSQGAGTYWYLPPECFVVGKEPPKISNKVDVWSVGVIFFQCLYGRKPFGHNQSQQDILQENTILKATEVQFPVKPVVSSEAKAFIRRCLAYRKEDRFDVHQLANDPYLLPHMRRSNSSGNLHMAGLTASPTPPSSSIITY
UniProt Q9H0V1: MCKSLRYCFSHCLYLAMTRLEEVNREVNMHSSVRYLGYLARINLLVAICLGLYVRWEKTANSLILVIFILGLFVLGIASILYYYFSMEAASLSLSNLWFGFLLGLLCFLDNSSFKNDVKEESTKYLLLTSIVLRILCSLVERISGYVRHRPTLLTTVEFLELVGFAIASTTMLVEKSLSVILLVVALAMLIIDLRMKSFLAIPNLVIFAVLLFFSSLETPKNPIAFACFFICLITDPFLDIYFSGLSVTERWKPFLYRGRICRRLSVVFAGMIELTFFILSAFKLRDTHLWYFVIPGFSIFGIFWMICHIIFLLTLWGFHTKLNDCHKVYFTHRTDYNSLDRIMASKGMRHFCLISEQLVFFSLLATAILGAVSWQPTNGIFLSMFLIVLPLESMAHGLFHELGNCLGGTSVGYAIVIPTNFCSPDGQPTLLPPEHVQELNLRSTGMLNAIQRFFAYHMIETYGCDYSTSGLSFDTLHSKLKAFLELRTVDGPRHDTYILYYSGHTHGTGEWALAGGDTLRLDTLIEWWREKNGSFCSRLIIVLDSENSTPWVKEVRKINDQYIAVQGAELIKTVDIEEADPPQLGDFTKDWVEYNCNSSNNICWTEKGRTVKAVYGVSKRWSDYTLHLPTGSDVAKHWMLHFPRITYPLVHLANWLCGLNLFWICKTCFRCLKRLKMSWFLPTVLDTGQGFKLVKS
UniProt Q6ZXV5: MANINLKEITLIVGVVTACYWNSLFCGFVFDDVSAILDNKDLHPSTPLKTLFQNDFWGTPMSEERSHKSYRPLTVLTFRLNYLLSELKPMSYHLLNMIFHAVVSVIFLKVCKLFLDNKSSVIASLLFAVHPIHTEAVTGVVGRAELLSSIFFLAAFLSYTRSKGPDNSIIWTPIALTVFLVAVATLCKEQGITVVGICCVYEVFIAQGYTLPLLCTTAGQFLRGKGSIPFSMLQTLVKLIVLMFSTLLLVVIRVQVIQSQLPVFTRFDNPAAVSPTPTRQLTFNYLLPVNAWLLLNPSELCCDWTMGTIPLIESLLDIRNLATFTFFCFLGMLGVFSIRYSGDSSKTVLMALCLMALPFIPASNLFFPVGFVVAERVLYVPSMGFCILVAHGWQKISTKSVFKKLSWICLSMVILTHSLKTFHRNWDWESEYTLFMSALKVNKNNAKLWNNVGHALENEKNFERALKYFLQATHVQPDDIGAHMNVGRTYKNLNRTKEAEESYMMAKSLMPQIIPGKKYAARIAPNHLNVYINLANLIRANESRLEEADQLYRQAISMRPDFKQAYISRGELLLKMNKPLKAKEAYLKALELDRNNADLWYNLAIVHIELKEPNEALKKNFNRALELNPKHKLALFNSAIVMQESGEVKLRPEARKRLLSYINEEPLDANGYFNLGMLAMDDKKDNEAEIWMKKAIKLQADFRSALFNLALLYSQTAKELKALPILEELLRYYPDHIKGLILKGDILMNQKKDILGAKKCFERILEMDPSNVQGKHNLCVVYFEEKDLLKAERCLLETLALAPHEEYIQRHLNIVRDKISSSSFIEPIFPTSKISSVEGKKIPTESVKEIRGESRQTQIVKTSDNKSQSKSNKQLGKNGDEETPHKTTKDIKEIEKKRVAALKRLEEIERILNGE
UniProt Q92544: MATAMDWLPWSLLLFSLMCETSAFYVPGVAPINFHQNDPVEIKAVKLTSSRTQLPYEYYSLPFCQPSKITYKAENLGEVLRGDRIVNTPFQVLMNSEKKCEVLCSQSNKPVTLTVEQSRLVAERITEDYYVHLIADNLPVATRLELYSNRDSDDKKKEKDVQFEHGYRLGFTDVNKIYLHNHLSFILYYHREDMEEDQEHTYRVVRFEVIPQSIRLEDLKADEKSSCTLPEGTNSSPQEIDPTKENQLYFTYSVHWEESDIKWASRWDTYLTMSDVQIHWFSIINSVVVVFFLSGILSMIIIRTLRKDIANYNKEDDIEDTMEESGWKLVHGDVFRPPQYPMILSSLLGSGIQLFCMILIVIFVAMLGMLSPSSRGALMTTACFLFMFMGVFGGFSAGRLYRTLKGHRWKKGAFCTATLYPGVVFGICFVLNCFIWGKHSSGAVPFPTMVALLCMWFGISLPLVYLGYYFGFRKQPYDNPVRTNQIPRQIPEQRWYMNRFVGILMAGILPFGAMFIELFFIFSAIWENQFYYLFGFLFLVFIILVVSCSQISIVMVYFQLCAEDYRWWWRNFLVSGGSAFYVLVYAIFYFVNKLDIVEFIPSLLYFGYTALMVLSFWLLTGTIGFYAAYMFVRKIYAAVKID
UniProt P28289: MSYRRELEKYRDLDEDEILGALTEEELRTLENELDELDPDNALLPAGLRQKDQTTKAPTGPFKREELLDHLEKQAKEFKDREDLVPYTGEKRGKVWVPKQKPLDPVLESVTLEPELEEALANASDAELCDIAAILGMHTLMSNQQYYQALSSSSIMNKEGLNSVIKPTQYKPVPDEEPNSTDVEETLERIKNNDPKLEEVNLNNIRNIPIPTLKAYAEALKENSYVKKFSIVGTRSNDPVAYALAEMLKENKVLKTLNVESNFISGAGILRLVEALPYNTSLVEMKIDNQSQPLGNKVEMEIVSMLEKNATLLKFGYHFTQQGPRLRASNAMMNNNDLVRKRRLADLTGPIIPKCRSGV
UniProt Q96A57: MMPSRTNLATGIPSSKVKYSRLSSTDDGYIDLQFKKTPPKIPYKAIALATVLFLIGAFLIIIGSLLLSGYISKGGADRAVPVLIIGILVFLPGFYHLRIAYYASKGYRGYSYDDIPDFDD
UniProt Q8IUX1: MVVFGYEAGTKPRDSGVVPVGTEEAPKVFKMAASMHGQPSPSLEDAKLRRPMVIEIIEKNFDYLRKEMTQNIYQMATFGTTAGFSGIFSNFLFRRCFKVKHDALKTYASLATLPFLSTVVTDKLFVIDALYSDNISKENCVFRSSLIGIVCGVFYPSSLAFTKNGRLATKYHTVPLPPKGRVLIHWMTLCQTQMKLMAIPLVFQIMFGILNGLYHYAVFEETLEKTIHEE
UniProt Q9Y3Q3: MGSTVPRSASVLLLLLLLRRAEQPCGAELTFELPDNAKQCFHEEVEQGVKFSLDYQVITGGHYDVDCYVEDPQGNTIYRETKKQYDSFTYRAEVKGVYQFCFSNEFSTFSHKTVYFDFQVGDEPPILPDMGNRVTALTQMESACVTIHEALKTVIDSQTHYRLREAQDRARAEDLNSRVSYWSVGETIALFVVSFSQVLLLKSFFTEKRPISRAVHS
UniProt O15321, whole entry, looked up: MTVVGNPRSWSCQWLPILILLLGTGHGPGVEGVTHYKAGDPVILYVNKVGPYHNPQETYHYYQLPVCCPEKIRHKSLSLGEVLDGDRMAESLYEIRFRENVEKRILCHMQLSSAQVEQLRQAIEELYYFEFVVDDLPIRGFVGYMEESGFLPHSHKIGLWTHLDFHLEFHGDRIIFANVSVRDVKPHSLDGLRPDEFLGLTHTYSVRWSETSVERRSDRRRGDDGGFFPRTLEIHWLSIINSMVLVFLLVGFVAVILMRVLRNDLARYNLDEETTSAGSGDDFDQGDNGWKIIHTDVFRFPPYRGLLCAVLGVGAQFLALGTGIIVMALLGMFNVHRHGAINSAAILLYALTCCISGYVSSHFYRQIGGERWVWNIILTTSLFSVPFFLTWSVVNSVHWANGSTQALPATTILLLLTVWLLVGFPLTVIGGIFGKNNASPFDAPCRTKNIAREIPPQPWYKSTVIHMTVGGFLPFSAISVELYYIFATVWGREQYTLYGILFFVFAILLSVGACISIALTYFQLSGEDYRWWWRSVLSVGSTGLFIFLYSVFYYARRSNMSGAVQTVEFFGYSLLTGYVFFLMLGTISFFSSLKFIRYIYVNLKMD
UniProt Q8TBQ9: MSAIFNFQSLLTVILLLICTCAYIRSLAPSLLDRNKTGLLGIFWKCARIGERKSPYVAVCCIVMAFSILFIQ
UniProt P63313: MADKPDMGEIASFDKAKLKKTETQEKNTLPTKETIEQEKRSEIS
UniProt A5PLL7: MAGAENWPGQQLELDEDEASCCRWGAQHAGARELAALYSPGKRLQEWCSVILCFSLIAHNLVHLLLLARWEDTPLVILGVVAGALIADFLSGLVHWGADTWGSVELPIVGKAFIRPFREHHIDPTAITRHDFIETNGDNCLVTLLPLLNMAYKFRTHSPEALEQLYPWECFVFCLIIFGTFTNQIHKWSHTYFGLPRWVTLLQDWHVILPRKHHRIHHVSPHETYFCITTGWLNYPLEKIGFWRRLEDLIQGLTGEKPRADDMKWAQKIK
UniProt Q8TDI8: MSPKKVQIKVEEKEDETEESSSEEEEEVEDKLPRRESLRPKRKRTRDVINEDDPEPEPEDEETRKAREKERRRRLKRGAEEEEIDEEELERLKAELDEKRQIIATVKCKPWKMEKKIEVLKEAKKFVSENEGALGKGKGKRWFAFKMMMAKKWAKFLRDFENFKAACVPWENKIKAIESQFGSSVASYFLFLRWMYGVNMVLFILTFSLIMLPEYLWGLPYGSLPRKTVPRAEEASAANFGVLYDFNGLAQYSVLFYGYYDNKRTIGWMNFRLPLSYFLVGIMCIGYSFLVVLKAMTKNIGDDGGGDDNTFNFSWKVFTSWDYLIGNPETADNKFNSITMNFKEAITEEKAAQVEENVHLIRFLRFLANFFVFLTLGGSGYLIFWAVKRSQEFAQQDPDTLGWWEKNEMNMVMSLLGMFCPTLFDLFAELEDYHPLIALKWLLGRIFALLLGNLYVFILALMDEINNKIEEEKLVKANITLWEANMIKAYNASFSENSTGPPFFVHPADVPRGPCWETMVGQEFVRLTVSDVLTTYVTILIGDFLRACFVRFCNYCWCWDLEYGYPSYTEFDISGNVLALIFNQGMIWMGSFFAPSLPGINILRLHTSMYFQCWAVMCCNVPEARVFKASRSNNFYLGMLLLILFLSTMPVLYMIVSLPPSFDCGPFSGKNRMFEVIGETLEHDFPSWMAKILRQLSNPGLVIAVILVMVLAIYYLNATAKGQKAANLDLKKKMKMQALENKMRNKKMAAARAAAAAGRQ
UniProt Q9H061: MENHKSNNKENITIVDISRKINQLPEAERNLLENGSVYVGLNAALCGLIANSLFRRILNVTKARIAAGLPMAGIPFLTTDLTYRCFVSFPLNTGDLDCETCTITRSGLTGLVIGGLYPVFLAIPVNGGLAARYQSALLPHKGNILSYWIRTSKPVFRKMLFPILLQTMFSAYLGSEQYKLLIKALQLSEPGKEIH

Key:
Assay in all cases: log2 fold change, soluble protein after heating vs DMSO (PISA); higher = thermal stabilisation; K562 cells, 10 uM, 30 min; active = over 0.2 and 3.5 SD of the protein, either way, in both replicates (recomputed)
[1] = compound: NC(=O)Nc1cc(-c2cccc(F)c2)sc1C(=O)N[C@H]1CCCNC1
Summary of the method: (§1)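 K562 cells at 2×10^6 cells/mL were given 10 μM compound for 30 min. Aliquots then went through 3 min of heating across 48°C-58°C, were pooled, and were extracted in PBS with 0.5% NP-40 at 4°C, and the supernatant after 21,000xg for 90 min was quantified by TMTpro 16plex LC-MS/MS with channel sums equalised. Thermal stability relative to control samples, from duplicates, is given as log2 fold change.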

[2] = compound: NC(=O)c1cnc(N[C@@H]2CCCC[C@@H]2N)nc1Nc1cccc(-n2nccn2)c1
Summary of the method: as §1

[3] = compound: NC1(c2ccc(-c3nc4ccn5c(=O)[nH]nc5c4cc3-c3ccccc3)cc2)CCC1
Summary of the method: as §1

[4] = compound: NCC(=O)Nc1ccc(-n2nc(C(F)(F)F)cc2-c2ccc3c(ccc4ccccc43)c2)cc1
Summary of the method: as §1

entinostat = compound: Nc1ccccc1NC(=O)c1ccc(CNC(=O)OCc2cccnc2)cc1 [entinostat]
Summary of the method: as §1

vorinostat = compound: O=C(CCCCCCC(=O)Nc1ccccc1)NO [vorinostat]
Summary of the method: as §1

citarinostat = compound: O=C(CCCCCCNC(=O)c1cnc(N(c2ccccc2)c2ccccc2Cl)nc1)NO [citarinostat]
Summary of the method: as §1

silmitasertib = compound: O=C(O)c1ccc2c(c1)nc(Nc1cccc(Cl)c1)c1ccncc12 [silmitasertib]
Summary of the method: as §1

[5] = compound: O=C1NC(=O)C(c2cnc3ccccn23)=C1c1cn2c3c(cc(F)cc13)CN(C(=O)N1CCCCC1)CC2
Summary of the method: as §1

[6] = compound: c1cc(OCCN2CCCCC2)cc(-c2n[nH]c3ccc(-c4nnc[nH]4)cc23)c1
Summary of the method: as §1

entospletinib = compound: c1cn2cc(-c3ccc4cn[nH]c4c3)nc(Nc3ccc(N4CCOCC4)cc3)c2n1 [entospletinib]
Summary of the method: as §1

Target | log2 fold change [1] | log2 fold change [2] | log2 fold change [3] | log2 fold change [4] | log2 fold change (entinostat) | log2 fold change (vorinostat) | log2 fold change (citarinostat) | log2 fold change (silmitasertib) | log2 fold change [5] | log2 fold change [6] | log2 fold change (entospletinib)
TMEM214 (UniProt Q6NUQ4) | inactive: -0.01 | inactive: 0.049 | inactive: -0.003 | inactive: 0.022 | inactive: 0.003 | inactive: 0.047 | inactive: -0.01 | inactive: 0.006 | inactive: 0.02 | inactive: -0.022 | –
TLK1 (UniProt Q9UKI8) | inactive: -0.062 | inactive: -0.074 | inactive: -0.063 | inactive: -0.034 | inactive: 0.042 | inactive: 0.027 | inactive: 0.049 | inactive: -0.002 | inactive: 0.002 | inactive: -0.074 | –
TMEM168 (UniProt Q9H0V1) | inactive: 0.005 | inactive: 0.02 | inactive: -0.031 | inactive: 0.065 | inactive: 0.056 | inactive: 0.037 | inactive: 0.079 | inactive: 0.008 | inactive: 0.253 | inactive: -0.124 | inactive: 0.078
TMTC3 (UniProt Q6ZXV5) | inactive: -0.028 | inactive: -0.113 | inactive: -0.135 | inactive: -0.097 | inactive: -0.046 | inactive: 0.025 | inactive: 0.005 | inactive: 0.025 | inactive: -0.037 | inactive: -0.089 | –
TM9SF4 (UniProt Q92544) | inactive: 0.024 | inactive: 0.064 | inactive: -0.061 | inactive: 0.032 | inactive: -0.01 | inactive: 0.146 | inactive: 0.044 | inactive: 0.03 | inactive: -0.011 | inactive: -0.057 | –
TMEM106B (UniProt Q9NUM4) | inactive: -0.042 | inactive: -0.038 | inactive: -0.056 | inactive: -0.016 | inactive: 0.008 | inactive: -0.023 | inactive: 0.022 | inactive: 0.034 | inactive: 0 | inactive: 0.046 | –
TMEM192 (UniProt Q8IY95) | inactive: 0 | inactive: -0.01 | active: -0.374 | inactive: 0.01 | inactive: -0.017 | inactive: -0.061 | inactive: -0.02 | inactive: 0.037 | inactive: 0.03 | inactive: -0.005 | –
TMEM189-UBE2V1 (UniProt I3L0A0) | inactive: 0.06 | inactive: -0.018 | inactive: -0.063 | inactive: -0.018 | inactive: -0.097 | inactive: 0.005 | inactive: 0.046 | inactive: -0.058 | inactive: 0.009 | inactive: -0.016 | –
TMEM165 (UniProt Q9HC07) | inactive: -0.007 | inactive: 0.054 | inactive: 0.055 | inactive: -0.121 | inactive: -0.008 | inactive: -0.044 | inactive: 0.019 | inactive: -0.04 | inactive: -0.014 | inactive: 0.034 | inactive: 0.028
TMOD1 (UniProt P28289) | inactive: -0.024 | inactive: -0.077 | inactive: -0.102 | inactive: -0.046 | inactive: 0.052 | inactive: 0.134 | inactive: 0.111 | inactive: 0.13 | inactive: 0.047 | inactive: -0.096 | inactive: 0.076
TNFRSF10A (UniProt O00220) | inactive: -0.097 | inactive: -0.019 | inactive: 0.06 | inactive: 0.029 | inactive: -0.202 | inactive: -0.178 | inactive: -0.011 | inactive: 0.028 | inactive: -0.069 | inactive: -0.07 | –
TMEM230 isoform 2 (UniProt Q96A57) | inactive: 0.003 | inactive: 0.024 | inactive: 0.007 | inactive: 0.123 | inactive: -0.024 | inactive: -0.008 | inactive: -0.014 | inactive: 0.024 | inactive: -0.045 | inactive: -0.043 | inactive: -0.038
TMEM30A (UniProt Q9NV96) | inactive: -0.07 | inactive: -0.014 | inactive: 0.016 | inactive: -0.015 | inactive: -0.086 | inactive: 0.003 | inactive: 0.023 | inactive: -0.03 | inactive: 0.029 | inactive: -0.002 | inactive: -0.024
TLN2 (UniProt Q9Y4G6) | inactive: 0.055 | inactive: 0.011 | inactive: 0.032 | inactive: 0.055 | inactive: 0.01 | inactive: 0.033 | inactive: -0.02 | inactive: 0.045 | inactive: -0.018 | inactive: -0.094 | inactive: -0.032
TMEM126B (UniProt Q8IUX1) | inactive: 0.022 | inactive: 0.005 | inactive: -0.007 | inactive: 0.055 | inactive: 0.023 | inactive: 0.058 | inactive: -0.131 | inactive: 0 | inactive: 0 | inactive: 0.029 | inactive: 0.014
TMUB2 (UniProt Q71RG4) | inactive: 0.061 | inactive: 0.059 | inactive: 0 | inactive: -0.007 | inactive: -0.028 | inactive: -0.11 | inactive: 0.003 | inactive: -0.065 | inactive: -0.047 | inactive: -0.047 | inactive: -0.006
TMED3 (UniProt Q9Y3Q3) | inactive: -0.002 | inactive: -0.054 | inactive: -0.123 | inactive: -0.078 | inactive: 0.055 | inactive: 0.051 | inactive: 0.015 | inactive: -0.021 | inactive: -0.109 | inactive: 0.05 | inactive: -0.08
TM9SF1 (UniProt O15321) | inactive: 0.026 | inactive: 0.012 | inactive: -0.086 | inactive: 0.133 | inactive: -0.085 | inactive: -0.061 | inactive: -0.071 | inactive: -0.021 | inactive: -0.128 | inactive: -0.021 | inactive: 0.135
TMEM242 (UniProt Q9NWH2) | inactive: 0.011 | inactive: -0.123 | inactive: -0.011 | inactive: -0.099 | inactive: -0.003 | inactive: -0.058 | inactive: 0.005 | inactive: 0.059 | inactive: 0.016 | inactive: -0.113 | inactive: 0.017
TMEM167A (UniProt Q8TBQ9) | inactive: 0.019 | inactive: -0.015 | inactive: 0.005 | inactive: -0.001 | inactive: 0.006 | inactive: -0.037 | inactive: 0.033 | inactive: 0.006 | inactive: 0.013 | inactive: -0.1 | inactive: 0.013
TMEM115 (UniProt Q12893) | inactive: -0.009 | inactive: -0.027 | inactive: 0.017 | inactive: 0.027 | inactive: 0.053 | inactive: 0.05 | inactive: 0.005 | inactive: 0.071 | inactive: -0.156 | inactive: -0.042 | inactive: -0.009
TLN1 (UniProt Q9Y490) | inactive: 0.026 | inactive: -0.057 | inactive: -0.119 | inactive: -0.054 | inactive: 0.052 | inactive: 0.025 | inactive: 0.059 | inactive: 0.015 | inactive: -0.03 | inactive: 0.017 | inactive: -0.02
TLE4 isoform 3 (UniProt Q04727) | inactive: 0.018 | inactive: -0.049 | inactive: -0.043 | inactive: -0.02 | inactive: 0.021 | inactive: -0.006 | inactive: 0.005 | inactive: -0.031 | inactive: -0.035 | inactive: -0.048 | inactive: 0.038
TMED2 (UniProt Q15363) | inactive: 0.007 | inactive: 0.008 | inactive: -0.067 | inactive: -0.014 | inactive: -0.009 | inactive: -0.008 | inactive: 0.054 | inactive: 0.013 | inactive: 0.003 | inactive: -0.004 | inactive: -0.01
TMSB10 (UniProt P63313) | inactive: 0.016 | inactive: 0.087 | inactive: 0.069 | inactive: 0.056 | inactive: 0.091 | inactive: -0.25 | inactive: -0.016 | inactive: -0.063 | inactive: -0.083 | inactive: 0.16 | inactive: 0.065
TMEM189 (UniProt A5PLL7) | inactive: 0.133 | inactive: 0.109 | inactive: -0.097 | inactive: 0.248 | inactive: 0.136 | inactive: 0.052 | inactive: 0.114 | inactive: 0.022 | inactive: -0.235 | inactive: -0.03 | inactive: -0.092
TMC1 (UniProt Q8TDI8) | inactive: -0.089 | inactive: -0.195 | inactive: -0.325 | inactive: -0.179 | inactive: 0.017 | inactive: 0.026 | inactive: -0.078 | inactive: 0.214 | inactive: 0.019 | inactive: -0.377 | inactive: -0.162
TMEM126A (UniProt Q9H061) | inactive: 0.007 | inactive: -0.026 | inactive: -0.043 | inactive: -0.035 | inactive: 0.036 | inactive: 0.07 | inactive: -0.038 | inactive: -0.024 | inactive: -0.08 | inactive: 0.061 | inactive: 0.023

Single records (already shown). Order of values: log2 fold change [1]	log2 fold change [2]	log2 fold change [3]	log2 fold change [4]	log2 fold change (entinostat)	log2 fold change (vorinostat)	log2 fold change (citarinostat)	log2 fold change (silmitasertib)	log2 fold change [5]	log2 fold change [6]	log2 fold change (entospletinib)
TMEM230 isoform 2 (UniProt Q96A57) as listed: inactive: 0.003	inactive: 0.024	inactive: 0.007	inactive: 0.123	inactive: -0.024	inactive: -0.008	inactive: -0.014	inactive: 0.024	inactive: -0.045	inactive: -0.043	inactive: -0.038
TMEM106B (UniProt Q9NUM4) as listed: inactive: -0.042	inactive: -0.038	inactive: -0.056	inactive: -0.016	inactive: 0.008	inactive: -0.023	inactive: 0.022	inactive: 0.034	inactive: 0	inactive: 0.046	–
